Reference: the supplement of paper PMC10849652
Some of the results follow.

Protein sequences, listed by entry. Tags and fused reporters are not part of them. Lines headed by an entry give the natural chain unless they say otherwise; changes in a name come on top.
UniProt Q9UHW5, whole entry, looked up: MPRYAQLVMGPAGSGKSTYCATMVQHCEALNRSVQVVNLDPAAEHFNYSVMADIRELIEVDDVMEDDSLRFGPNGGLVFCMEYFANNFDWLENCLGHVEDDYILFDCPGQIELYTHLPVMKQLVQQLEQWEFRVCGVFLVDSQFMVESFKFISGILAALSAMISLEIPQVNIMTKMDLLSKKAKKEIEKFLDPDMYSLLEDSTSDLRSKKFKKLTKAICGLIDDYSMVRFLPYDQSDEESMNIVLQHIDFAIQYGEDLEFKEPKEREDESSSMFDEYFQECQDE
UniProt Q03113, whole entry, looked up: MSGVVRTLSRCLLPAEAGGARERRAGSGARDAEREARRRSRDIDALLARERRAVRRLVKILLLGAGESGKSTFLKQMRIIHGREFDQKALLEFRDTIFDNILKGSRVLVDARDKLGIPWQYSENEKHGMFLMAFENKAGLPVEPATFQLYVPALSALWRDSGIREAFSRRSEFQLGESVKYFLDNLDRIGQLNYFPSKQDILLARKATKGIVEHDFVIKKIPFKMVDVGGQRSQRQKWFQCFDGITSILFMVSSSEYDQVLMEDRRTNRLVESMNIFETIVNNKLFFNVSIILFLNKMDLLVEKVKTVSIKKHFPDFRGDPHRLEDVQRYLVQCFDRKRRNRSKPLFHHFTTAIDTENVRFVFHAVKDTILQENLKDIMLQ
UniProt Q9Y5P6: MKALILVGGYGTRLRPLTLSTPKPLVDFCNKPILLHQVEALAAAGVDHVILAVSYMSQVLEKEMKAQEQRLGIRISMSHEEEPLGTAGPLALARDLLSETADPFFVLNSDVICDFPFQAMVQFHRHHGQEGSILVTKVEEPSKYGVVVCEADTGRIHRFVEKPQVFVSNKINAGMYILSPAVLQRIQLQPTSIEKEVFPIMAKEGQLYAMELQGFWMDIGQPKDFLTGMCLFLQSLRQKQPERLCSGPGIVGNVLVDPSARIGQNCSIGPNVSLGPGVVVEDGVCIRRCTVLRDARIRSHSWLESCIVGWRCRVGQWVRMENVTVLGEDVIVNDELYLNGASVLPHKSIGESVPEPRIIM
UniProt Q9H9Y4: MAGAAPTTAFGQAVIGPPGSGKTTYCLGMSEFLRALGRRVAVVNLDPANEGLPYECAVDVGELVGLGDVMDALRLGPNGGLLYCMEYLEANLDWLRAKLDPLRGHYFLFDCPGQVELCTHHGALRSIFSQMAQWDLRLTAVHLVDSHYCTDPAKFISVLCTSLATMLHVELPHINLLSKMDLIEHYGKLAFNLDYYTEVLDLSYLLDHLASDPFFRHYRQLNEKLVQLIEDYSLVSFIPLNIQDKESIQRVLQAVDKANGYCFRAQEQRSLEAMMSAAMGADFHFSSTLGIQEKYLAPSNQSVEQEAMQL
UniProt P49840: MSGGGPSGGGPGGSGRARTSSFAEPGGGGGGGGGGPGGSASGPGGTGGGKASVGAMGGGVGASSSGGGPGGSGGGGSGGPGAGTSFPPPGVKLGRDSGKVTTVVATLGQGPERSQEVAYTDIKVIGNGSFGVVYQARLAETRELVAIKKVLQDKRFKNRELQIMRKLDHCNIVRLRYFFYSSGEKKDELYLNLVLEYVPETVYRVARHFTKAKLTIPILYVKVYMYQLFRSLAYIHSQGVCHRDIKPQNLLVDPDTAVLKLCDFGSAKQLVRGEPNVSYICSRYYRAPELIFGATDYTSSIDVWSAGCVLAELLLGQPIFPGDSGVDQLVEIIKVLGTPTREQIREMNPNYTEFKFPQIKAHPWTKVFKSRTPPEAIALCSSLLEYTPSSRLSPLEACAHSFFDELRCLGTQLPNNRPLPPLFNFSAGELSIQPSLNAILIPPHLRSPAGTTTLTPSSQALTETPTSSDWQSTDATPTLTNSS
UniProt Q9NZD2: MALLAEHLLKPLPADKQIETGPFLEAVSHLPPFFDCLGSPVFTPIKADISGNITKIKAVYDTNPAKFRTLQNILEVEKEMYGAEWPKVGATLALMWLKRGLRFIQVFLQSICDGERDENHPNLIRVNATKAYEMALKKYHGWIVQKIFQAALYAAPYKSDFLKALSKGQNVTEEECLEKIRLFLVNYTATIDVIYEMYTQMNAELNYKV
UniProt Q9NU53: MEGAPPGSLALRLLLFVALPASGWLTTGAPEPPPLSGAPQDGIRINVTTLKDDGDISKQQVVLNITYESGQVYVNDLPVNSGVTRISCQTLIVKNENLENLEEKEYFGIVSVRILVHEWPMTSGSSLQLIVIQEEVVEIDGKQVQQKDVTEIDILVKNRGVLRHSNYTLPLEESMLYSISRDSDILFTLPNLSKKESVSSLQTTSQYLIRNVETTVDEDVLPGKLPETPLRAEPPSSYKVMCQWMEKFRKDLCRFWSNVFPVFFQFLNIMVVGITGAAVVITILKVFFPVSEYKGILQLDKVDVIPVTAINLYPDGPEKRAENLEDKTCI
UniProt O75496: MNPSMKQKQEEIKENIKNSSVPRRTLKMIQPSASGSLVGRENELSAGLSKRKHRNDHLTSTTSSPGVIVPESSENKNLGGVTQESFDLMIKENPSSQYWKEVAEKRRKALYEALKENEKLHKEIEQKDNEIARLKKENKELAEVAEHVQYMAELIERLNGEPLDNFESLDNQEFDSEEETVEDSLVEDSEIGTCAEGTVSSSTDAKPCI
UniProt A6NDN3: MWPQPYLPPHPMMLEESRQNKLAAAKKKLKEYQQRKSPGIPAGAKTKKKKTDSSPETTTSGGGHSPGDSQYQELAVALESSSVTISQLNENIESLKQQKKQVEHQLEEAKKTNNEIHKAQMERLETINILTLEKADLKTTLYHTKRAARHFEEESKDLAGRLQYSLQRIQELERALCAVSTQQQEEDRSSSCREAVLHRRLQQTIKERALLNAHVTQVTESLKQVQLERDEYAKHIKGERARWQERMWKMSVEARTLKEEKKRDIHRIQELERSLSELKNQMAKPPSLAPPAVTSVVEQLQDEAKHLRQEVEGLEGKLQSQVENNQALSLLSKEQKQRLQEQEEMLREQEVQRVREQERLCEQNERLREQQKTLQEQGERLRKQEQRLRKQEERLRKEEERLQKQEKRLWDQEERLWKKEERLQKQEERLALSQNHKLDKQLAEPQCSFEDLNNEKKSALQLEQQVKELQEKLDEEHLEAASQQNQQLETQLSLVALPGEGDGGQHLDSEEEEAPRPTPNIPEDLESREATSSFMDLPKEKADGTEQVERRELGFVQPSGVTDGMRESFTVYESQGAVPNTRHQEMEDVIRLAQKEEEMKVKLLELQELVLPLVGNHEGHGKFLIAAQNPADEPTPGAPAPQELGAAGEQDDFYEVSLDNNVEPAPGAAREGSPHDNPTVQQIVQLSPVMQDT
UniProt P50148, whole entry, looked up: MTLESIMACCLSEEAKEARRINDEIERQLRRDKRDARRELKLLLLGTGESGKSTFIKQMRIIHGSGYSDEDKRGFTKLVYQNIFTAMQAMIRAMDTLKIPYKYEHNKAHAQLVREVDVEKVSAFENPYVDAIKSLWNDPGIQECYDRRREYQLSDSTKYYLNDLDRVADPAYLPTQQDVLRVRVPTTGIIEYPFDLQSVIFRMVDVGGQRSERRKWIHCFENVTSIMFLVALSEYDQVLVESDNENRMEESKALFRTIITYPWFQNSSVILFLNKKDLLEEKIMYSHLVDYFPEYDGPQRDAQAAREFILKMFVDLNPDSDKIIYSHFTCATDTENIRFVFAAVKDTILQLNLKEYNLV
UniProt P62873, whole entry, looked up: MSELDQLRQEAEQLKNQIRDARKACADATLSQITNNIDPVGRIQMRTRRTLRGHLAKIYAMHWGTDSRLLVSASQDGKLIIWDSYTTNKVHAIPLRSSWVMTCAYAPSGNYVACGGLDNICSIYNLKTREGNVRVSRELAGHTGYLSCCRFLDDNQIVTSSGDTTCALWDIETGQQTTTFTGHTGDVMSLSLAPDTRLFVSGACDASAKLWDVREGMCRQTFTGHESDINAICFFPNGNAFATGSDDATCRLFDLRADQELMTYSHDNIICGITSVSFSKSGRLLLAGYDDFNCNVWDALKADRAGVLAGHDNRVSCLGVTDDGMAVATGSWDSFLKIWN
UniProt P13224: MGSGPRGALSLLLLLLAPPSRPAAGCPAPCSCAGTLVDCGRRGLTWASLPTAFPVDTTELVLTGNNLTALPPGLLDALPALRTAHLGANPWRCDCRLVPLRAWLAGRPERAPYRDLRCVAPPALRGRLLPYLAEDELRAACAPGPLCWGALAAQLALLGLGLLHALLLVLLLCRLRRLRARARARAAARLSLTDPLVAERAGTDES
UniProt Q9HC44: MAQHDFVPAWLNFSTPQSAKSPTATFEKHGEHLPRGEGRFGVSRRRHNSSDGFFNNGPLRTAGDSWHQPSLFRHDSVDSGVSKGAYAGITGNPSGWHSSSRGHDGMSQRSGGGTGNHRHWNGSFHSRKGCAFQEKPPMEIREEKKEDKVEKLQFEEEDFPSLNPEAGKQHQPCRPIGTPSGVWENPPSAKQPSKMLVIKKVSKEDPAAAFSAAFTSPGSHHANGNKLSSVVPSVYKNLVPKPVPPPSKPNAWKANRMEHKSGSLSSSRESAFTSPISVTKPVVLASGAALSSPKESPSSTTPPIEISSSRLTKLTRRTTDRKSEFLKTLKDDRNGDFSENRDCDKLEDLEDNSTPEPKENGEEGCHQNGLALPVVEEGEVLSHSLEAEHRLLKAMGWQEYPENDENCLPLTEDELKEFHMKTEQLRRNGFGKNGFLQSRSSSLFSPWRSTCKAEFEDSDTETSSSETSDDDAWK
UniProt P25098: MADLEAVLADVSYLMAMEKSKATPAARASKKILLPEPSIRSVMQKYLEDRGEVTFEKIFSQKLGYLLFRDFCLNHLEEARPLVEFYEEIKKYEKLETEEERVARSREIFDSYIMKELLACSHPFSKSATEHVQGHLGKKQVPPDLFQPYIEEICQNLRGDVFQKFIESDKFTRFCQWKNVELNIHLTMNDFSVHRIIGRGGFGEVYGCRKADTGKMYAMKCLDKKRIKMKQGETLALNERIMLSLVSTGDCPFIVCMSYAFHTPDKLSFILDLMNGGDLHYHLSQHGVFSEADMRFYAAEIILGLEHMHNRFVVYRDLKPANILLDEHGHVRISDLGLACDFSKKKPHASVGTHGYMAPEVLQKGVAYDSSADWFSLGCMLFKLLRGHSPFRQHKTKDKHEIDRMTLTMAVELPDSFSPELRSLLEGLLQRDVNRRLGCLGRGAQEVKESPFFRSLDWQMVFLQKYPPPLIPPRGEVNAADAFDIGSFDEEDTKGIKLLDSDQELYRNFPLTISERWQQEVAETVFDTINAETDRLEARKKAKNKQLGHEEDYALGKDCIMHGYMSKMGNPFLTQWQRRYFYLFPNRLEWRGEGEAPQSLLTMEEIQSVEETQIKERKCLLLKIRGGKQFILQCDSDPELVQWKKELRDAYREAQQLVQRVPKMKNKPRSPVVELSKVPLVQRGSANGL
UniProt Q96IJ6: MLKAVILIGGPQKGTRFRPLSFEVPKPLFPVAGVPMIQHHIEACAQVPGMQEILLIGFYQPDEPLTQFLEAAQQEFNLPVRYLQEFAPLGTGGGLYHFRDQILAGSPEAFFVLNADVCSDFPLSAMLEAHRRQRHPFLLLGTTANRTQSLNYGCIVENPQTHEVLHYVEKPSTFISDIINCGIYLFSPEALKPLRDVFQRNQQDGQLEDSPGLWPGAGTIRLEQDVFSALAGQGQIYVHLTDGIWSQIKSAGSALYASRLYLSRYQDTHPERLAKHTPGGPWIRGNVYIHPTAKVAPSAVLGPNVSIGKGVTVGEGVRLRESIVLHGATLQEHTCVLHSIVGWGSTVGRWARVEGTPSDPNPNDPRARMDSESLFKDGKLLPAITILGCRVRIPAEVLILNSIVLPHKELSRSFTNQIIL
UniProt P62993, whole entry, looked up: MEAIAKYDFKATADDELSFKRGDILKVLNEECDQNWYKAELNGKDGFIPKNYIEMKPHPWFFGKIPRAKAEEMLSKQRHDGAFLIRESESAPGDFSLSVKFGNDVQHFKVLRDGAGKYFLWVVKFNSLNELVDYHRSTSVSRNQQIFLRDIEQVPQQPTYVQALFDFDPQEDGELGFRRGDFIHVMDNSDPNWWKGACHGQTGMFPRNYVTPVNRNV
UniProt P60983, whole entry, looked up: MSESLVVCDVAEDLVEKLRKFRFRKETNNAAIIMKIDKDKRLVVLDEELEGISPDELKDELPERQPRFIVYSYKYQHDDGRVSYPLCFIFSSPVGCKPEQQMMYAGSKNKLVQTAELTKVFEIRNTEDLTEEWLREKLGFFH
UniProt Q04760: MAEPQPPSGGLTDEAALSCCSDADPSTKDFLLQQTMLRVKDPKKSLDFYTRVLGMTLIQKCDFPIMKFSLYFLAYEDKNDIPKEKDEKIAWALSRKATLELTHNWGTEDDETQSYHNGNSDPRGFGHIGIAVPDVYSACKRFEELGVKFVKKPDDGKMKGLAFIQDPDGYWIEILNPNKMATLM
UniProt Q9BRT9, whole entry, looked up: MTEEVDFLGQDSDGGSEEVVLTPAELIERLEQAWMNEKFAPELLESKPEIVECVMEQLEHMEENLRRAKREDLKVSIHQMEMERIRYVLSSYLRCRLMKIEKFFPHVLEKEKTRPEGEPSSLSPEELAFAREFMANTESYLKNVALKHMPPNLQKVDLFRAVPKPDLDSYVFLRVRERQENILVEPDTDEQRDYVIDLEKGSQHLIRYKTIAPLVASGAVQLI

Assays:
Test in all cases: log2 fold change, soluble protein after heating vs DMSO (PISA); higher = thermal stabilisation; K562 cells, 10 uM, 30 min; active = over 0.2 and 3.5 SD of the protein, either way, in both replicates (recomputed)
bafetinib = compound: Cc1ccc(NC(=O)c2ccc(CN3CC[C@H](N(C)C)C3)c(C(F)(F)F)c2)cc1Nc1nccc(-c2cncnc2)n1 [bafetinib]
Outline: (§1)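 Thermal stability values are relative to control samples and come from duplicates. They are expressed as log2 fold changes. For measurement, K562 cells (2×10^6 cells/mL) received 10 μM compound for 30 min, and aliquots were heated for 3 min over 48°C-58°C, pooled, and extracted at 4°C in PBS with 0.5% NP-40. Soluble protein, the supernatant after 21,000xg for 90 min, was quantified by TMTpro 16plex LC-MS/MS with equalised channel sums.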

[1] = compound: Cc1cccc(CC(=O)N2CCc3c2ccc(-c2cn(C)c4ncnc(N)c24)c3F)n1
Outline: as §1

nilotinib = compound: Cc1cn(-c2cc(NC(=O)c3ccc(C)c(Nc4nccc(-c5cccnc5)n4)c3)cc(C(F)(F)F)c2)cn1 [nilotinib]
Outline: as §1

[2] = compound: Cc1nc(Nc2n[nH]c3c2CN(C(=O)N[C@H](CN(C)C)c2ccccc2)C3(C)C)c2sccc2n1
Outline: as §1

dasatinib = compound: Cc1nc(Nc2ncc(C(=O)Nc3c(C)cccc3Cl)s2)cc(N2CCN(CCO)CC2)n1 [dasatinib]
Outline: as §1

[3] = compound: Cc1ncc(-c2ccnc(Nc3ccc(S(C)(=O)=O)cc3)n2)n1C(C)C
Outline: as §1

[4] = compound: Cn1cc(-c2ccc3c(c2)CCN3C(=O)Cc2cccc(C(F)(F)F)c2)c2c(N)ncnc21
Outline: as §1

[5] = compound: Cn1cc(-c2ccc3nnc(C(F)(F)c4ccc5ncccc5c4)n3n2)cn1
Outline: as §1

tipifarnib = compound: Cn1cncc1[C@@](N)(c1ccc(Cl)cc1)c1ccc2c(c1)c(-c1cccc(Cl)c1)cc(=O)n2C [tipifarnib]
Outline: as §1

mubritinib = compound: FC(F)(F)c1ccc(/C=C/c2nc(COc3ccc(CCCCn4ccnn4)cc3)co2)cc1 [mubritinib]
Outline: as §1

Measured: log2 fold change

GPN3 isoform 2 (UniProt Q9UHW5)
inactive: bafetinib -0.041 | [1] -0.021 | nilotinib 0.019 | [2] 0.095 | dasatinib 0.056 | [3] -0.009 | [4] 0.011 | [5] -0.046 | tipifarnib 0 | mubritinib 0.088

GNA12 (UniProt Q03113)
inactive: bafetinib -0.025 | [1] -0.276 | nilotinib -0.265 | [2] 0.067 | dasatinib 0.175 | [3] -0.235 | [4] -0.138 | tipifarnib 0.032 | mubritinib 0.036

GPS1 (UniProt A8K070)
inactive: bafetinib -0.13 | [1] -0.015 | nilotinib 0.05 | [2] 0 | [3] -0.113 | [4] 0.079 | [5] -0.104 | mubritinib 0.044

GMPPB isoform 2 (UniProt Q9Y5P6)
inactive: bafetinib 0.048 | [1] -0.013 | nilotinib 0.057 | [2] -0.013 | dasatinib -0.029 | [3] 0.107 | [4] 0.053 | [5] -0.018 | tipifarnib -0.008 | mubritinib -0.004

GOLGA3 (UniProt Q08378)
inactive: bafetinib -0.049 | [1] 0.011 | nilotinib 0.004 | [2] -0.016 | dasatinib 0.016 | [3] 0.056 | [4] 0.039 | [5] 0.001 | tipifarnib -0.011 | mubritinib 0.047

GPN2 (UniProt Q9H9Y4)
inactive: bafetinib -0.033 | [1] -0.027 | nilotinib 0.079 | [2] -0.028 | dasatinib 0.136 | [3] -0.04 | [4] 0.038 | [5] -0.021 | tipifarnib 0.02 | mubritinib 0.071

GSK3A (UniProt P49840)
inactive: bafetinib -0.052 | [1] -0.027 | nilotinib -0.01 | dasatinib -0.024 | [4] -0.004 | [5] 0.011 | tipifarnib -0.033 | mubritinib 0.038
active: [2] 0.308 | [3] 0.383

GLTP (UniProt Q9NZD2)
inactive: bafetinib 0.058 | [1] 0.029 | nilotinib 0.163 | [2] -0.029 | [3] 0.018 | [4] 0.163 | [5] 0.008 | tipifarnib 0.009 | mubritinib 0.033

GINM1 (UniProt Q9NU53)
inactive: bafetinib -0.163 | [1] 0.061 | nilotinib -0.158 | [2] 0.094 | [3] 0.043 | tipifarnib -0.025 | mubritinib -0.043

GMNN (UniProt O75496)
inactive: bafetinib -0.01 | [1] -0.079 | nilotinib 0.029 | [2] 0 | dasatinib 0.038 | [3] 0.06 | [4] 0.009 | [5] -0.01 | tipifarnib 0.023 | mubritinib 0.033

GK5 (UniProt Q6ZS86)
inactive: bafetinib 0.201 | [1] -0.005 | dasatinib 0.065 | [4] 0.153 | [5] 0.021 | tipifarnib -0.186

GPI (UniProt P06744)
inactive: bafetinib 0.026 | [1] 0.01 | nilotinib -0.021 | [2] -0.041 | dasatinib -0.046 | [3] -0.008 | [4] 0.031 | [5] 0.011 | tipifarnib -0.007 | mubritinib 0.059

GOLGA6B (UniProt A6NDN3)
inactive: bafetinib -0.087 | [1] -0.042 | nilotinib -0.183 | [2] 0.02 | [3] 0.02 | mubritinib 0.146

GNAQ (UniProt P50148)
inactive: bafetinib 0.006 | [1] 0.025 | nilotinib 0.068 | [2] 0.014 | dasatinib 0.008 | [3] 0 | [4] 0.023 | [5] 0.008 | tipifarnib 0.065 | mubritinib -0.006

GNB1 (UniProt P62873)
inactive: bafetinib 0.136 | [1] 0.069 | nilotinib 0.081 | [2] 0.01 | dasatinib -0.025 | [3] -0.008 | [4] 0.033 | [5] 0.003 | tipifarnib -0.064 | mubritinib -0.018

GPD1 (UniProt P21695)
inactive: bafetinib -0.171 | [1] -0.123 | nilotinib -0.104 | [2] 0.054 | dasatinib 0.061 | [3] -0.017 | [4] 0.238 | [5] 0.163 | tipifarnib 0.057 | mubritinib 0.045

GP1BB isoform 2 (UniProt P13224)
inactive: bafetinib -0.044 | [1] 0.023 | nilotinib 0.045 | [2] 0.013 | dasatinib -0.034 | [3] -0.029 | [4] -0.035 | tipifarnib 0.059 | mubritinib 0.045

2 neighbouring records from above, for reference:
GNAQ (UniProt P50148)
inactive: bafetinib 0.006 | [1] 0.025 | nilotinib 0.068 | [2] 0.014 | dasatinib 0.008 | [3] 0 | [4] 0.023 | [5] 0.008 | tipifarnib 0.065 | mubritinib -0.006

GNB1 (UniProt P62873)
inactive: bafetinib 0.136 | [1] 0.069 | nilotinib 0.081 | [2] 0.01 | dasatinib -0.025 | [3] -0.008 | [4] 0.033 | [5] 0.003 | tipifarnib -0.064 | mubritinib -0.018

(further entries)

GNL3 (UniProt Q9BVP2)
inactive: bafetinib -0.038 | [1] -0.078 | nilotinib -0.007 | [2] 0.011 | dasatinib -0.031 | [3] 0.056 | [4] 0.069 | mubritinib 0.134

GPATCH4 isoform 3 (UniProt Q5T3I0)
inactive: bafetinib -0.247 | [1] -0.104 | dasatinib 0.073 | [4] -0.461 | [5] 0.153 | tipifarnib 0.168

GPBP1L1 (UniProt Q9HC44)
inactive: bafetinib -0.113 | [1] -0.17 | nilotinib 0.058 | [2] 0.01 | dasatinib 0.006 | [3] 0.141 | [4] 0.064 | [5] 0.03 | tipifarnib 0.041 | mubritinib -0.037

GRK2 (UniProt P25098)
inactive: bafetinib -0.044 | [1] -0.006 | nilotinib -0.056 | [2] 0.057 | dasatinib -0.084 | [3] -0.029 | [4] 0.078 | [5] 0.014 | tipifarnib -0.037 | mubritinib -0.023

GMPPA (UniProt Q96IJ6)
inactive: bafetinib -0.028 | [1] -0.024 | nilotinib -0.034 | [2] -0.001 | dasatinib -0.059 | [3] 0.034 | [4] 0.039 | [5] 0.042 | tipifarnib -0.022 | mubritinib 0.005

GRB2 (UniProt P62993)
inactive: bafetinib 0.139 | [1] 0.032 | nilotinib 0.174 | [2] -0.031 | dasatinib 0.114 | [3] -0.014 | [4] 0.049 | [5] 0.013 | tipifarnib 0.035 | mubritinib 0.077

GMFB (UniProt P60983)
inactive: bafetinib -0.042 | [1] -0.016 | nilotinib 0.018 | [2] -0.001 | dasatinib 0.038 | [3] 0.014 | [4] 0.018 | [5] 0.007 | tipifarnib 0.016 | mubritinib 0.042

GLA (UniProt P06280)
active: bafetinib -0.529
inactive: [1] -0.051 | nilotinib 0.021 | [2] -0.007 | dasatinib -0.039 | [3] -0.04 | [4] 0.005 | [5] 0.03 | tipifarnib 0.064 | mubritinib 0.035

GRHPR (UniProt Q9UBQ7)
inactive: bafetinib 0 | [1] -0.028 | nilotinib 0.004 | [2] 0.02 | dasatinib -0.055 | [3] -0.021 | [4] 0.064 | [5] -0.006 | tipifarnib -0.01 | mubritinib -0.025

GLO1 (UniProt Q04760)
inactive: bafetinib -0.01 | [1] -0.006 | nilotinib 0.026 | [2] 0.002 | dasatinib 0.036 | [3] -0.004 | [4] 0.023 | [5] -0.002 | tipifarnib 0.018 | mubritinib 0.041

GINS4 (UniProt Q9BRT9)
inactive: bafetinib -0.04 | [1] 0.076 | nilotinib 0.043 | [2] -0.063 | dasatinib -0.106 | [3] 0.018 | [4] 0.059 | [5] 0.027 | tipifarnib 0.019 | mubritinib 0.098
